This passage reports binding results from article PMC7226122.

By UniProt entry, the sequences of proteins in these tests, tags left out. Where a name states a change or a piece, a line headed by the entry shows the natural chain unless it says otherwise.
UniProt Q13153: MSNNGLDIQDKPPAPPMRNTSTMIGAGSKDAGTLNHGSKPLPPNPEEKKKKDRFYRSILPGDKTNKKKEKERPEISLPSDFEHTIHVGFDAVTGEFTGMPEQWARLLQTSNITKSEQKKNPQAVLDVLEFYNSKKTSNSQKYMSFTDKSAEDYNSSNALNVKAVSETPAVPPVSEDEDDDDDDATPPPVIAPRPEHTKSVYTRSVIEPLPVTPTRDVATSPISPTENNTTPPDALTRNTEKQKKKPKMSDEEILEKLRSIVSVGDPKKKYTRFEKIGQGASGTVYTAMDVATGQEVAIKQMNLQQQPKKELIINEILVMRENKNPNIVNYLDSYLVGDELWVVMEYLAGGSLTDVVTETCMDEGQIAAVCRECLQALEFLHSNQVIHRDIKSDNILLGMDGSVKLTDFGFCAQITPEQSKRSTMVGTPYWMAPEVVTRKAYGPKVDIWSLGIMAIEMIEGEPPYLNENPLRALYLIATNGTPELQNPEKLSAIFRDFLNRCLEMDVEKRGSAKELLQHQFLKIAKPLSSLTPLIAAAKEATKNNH
UniProt P60953: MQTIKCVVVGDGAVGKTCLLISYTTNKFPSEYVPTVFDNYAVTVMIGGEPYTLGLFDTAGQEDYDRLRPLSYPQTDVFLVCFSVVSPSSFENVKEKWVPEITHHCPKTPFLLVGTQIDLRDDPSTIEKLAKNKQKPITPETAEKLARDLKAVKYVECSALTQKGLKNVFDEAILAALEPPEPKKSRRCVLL

This experiment concerns the target GST-PAK1-PBD (GST-conjugated Rac/Cdc42 (p21) binding domain from PAK1) (UniProt Q13153). The experiment can be described thus: pull-down; 20 ug GST-PAK1-PBD with glutathione resin incubated with total protein of cell lysate at 4 C for 1 h; resin washed with lysis buffer, eluted with 2x SDS sample buffer with 200 mM dithiothreitol; immunoblotting; U251 IDH1 WT or IDH1-mutated cells; only the target purified. In general terms: A western blot detects proteins with antibodies after separation by electrophoresis.

No constants are given. Whether binding was seen depends on the method and setting. Binding seen in cells or lysates may run through a third protein. A result given as binding can be weak or reduced; the word gives no strength.

For the substance “Cell division control protein 42 homolog (Cdc42), active form (from UniProt P60953 1-191)”, the binding result is “binds”.
